Laboratory results: US20230233514A1, “ANTIVIRAL COMPOUNDS AND METHODS OF USING THE SAME” (priority 2020, published 2023)
At least one compound was matched to its structure with a doubt left. Some entries repeat one wording, which the source may state once for all of them.

System: SARS-CoV-2
Assay type: cell-based
Conditions: 1 hour pre-treatment, 1 nM-100 μM, MOI 0.05, 48 hours, Vero E6 cells

| SMILES | effect on Viral Load (viral burden) |
| --- | --- |
| C[C@@H]1O[C@@H](OC[C@H]2O[C@@H](Oc3c(-c4ccc(O)c(O)c4)oc4cc(O)cc(O)c4c3=O)[C@H](O)[C@@H](O)[C@@H]2O)[C@H](O)[C@H](O)[C@H]1O [Rutin] | did not show an effect |
| O=C(/C=C/c1ccc(O)cc1)OC[C@H]1O[C@@H](Oc2c(-c3ccc(O)cc3)oc3cc(O)cc(O)c3c2=O)[C@H](O)[C@@H](O)[C@@H]1O [Tiliroside] | did not show an effect |
